About 170 (0.05%) of roughly 340,000 compounds were called active. Inconclusive results, whose numbers are uncertain, are shown with a selection of clear calls. Calls follow the shape of the dose curve; as a rule, active = well fitted inhibition curve with a large enough effect in the signal ratio, with a control signal flat (not every such curve was filed as active); inconclusive = small, poorly fitted or top-dose-only effect, or effect the other way, or a change in a side signal; inactive = flat fitted curve, though single readings scatter; the % refers to the signal ratio. A potency beside an inconclusive call is a rough fit, not a confirmed value.
Assay: qHTS Assay to Find Inhibitors of Chronic Active B-Cell Receptor Signaling;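 as to activity change, negative = inhibition: plate controls were basal doxycycline-induced cells for no effect and cells given 10 µM MG132 for full effect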
Details: ABC-DLBCL IkBa-CBG/CBR reporter, luminescence ratio (green luciferase fused to IkBa over red control in TMD8 lymphoma cells), 4 h; activity change, negative = inhibition: at 46.1 µM (top of the series)
How it was run: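 Concentration-response series (up to 46 uM) were applied to TMD8 dual-reporter cells for 4 h at 37C with doxycycline. Green/red ratio, after filter-overlap correction, defined %Activity; red signal alone was normalised to basal cells and zero luminescence.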
Potency is read from the fitted curve at half-maximal effect.

SMILES	activity change, negative = inhibition	Potency
O=C(NCC1CCCO1)C1CCN(C2CCN(C(=O)Cc3ccsc3)CC2)CC1 (stereo unspecified)	inactive: -3.83%	–
CN1CCN(CC(=O)Nc2nc3ccccc3s2)CC1	inconclusive: 1.87%	–
Nc1nonc1C(=O)N/N=C/c1ccc(-c2cccc(C(=O)O)c2)o1	–	inconclusive: 15.8 µM [falling, partial curve]
Cc1ccc(S(=O)(=O)/N=C(\N)Nc2nc(C)c3ccccc3n2)cc1	inactive: -8.74%	–
O=C(CN1C(=O)CC(c2ccccc2)=Nc2ccccc21)NCc1ccco1	inconclusive: 7.75%	–
Cc1cc(-c2cccs2)nc(-n2cccc2)n1	–	inconclusive: 11.2 µM [rising, partial curve, poor fit]
Cc1ccsc1/C=N/NC(=O)c1ccc(Cn2cc(Br)cn2)o1	inactive: -0.402%	–
Cn1c(=O)c2nc3ccccc3nc2n(C)c1=O	inactive: -1.49%	–
Cc1ccc(-c2nc(C)sc2CC(=O)OCC(=O)Nc2c(F)cccc2F)cc1	inconclusive: 3.19%	–
C[C@H]1O[C@@H](O[C@H]2[C@@H](O)C[C@H](O[C@H]3[C@@H](O)C[C@H](O[C@H]4CC[C@@]5(C)[C@H](CC[C@@H]6[C@@H]5C[C@@H](O)[C@]5(C)[C@@H](C7=CC(=O)OC7)CC[C@]65O)C4)O[C@@H]3C)O[C@@H]2C)C[C@H](O)[C@@H]1O	inconclusive: -0.645%	–
Cc1cccc(N2CCN(C(=O)c3ccc(NS(=O)(=O)c4c(C)noc4C)cc3)CC2)c1C	inconclusive: -24.8%	–
O=C(COc1ccc([N+](=O)[O-])cc1)Nc1ccccc1N1CCCC1	inactive: -16.6%	–
O=S1(=O)CCN(OCc2ccc(Cl)cc2)CC1	inactive: 7.33%	–
CC(=O)N1CCN(C(=O)CC2OC(=O)c3ccccc32)CC1 (stereo unspecified)	inactive: -13.7%	–
CCN(CC)C(=O)CC(c1cc(OC)c(OC)c(OC)c1)c1c(OC)cc(OC)c2c(-c3ccccc3)cc(=O)oc12 (stereo unspecified)	inactive: -12.8%	–
COc1ccc(CCNCC(O)COc2ccc(Cl)cc2)cc1OC (stereo unspecified)	inactive: 1.49%	–
CCOCCCNC(=O)C1CC(=O)N(CCc2ccccc2)C1 (stereo unspecified)	inconclusive: 5.47%	–
Cc1sc(NC(=O)Nc2ccccc2)c(C(N)=O)c1C	–	inconclusive: 22.4 µM [falling, partial curve]
CCOc1ccc(NS(=O)(=O)c2ccc(C(=O)NCc3ccncc3)cc2)cc1	inactive: 2.3%	–
COc1ccc2nc(NC(=O)c3ccc([N+](=O)[O-])o3)sc2c1	–	inconclusive: 35.5 µM [rising, partial curve]
Cc1cnc(NC(=O)CSc2nc3ccccc3s2)s1	–	inconclusive: 29.1 µM [falling, single point]

Some of these compounds in order of count of non-hydrogen atoms, descending:
SMILES	activity change, negative = inhibition	Potency
Cc1cccc(N2CCN(C(=O)c3ccc(NS(=O)(=O)c4c(C)noc4C)cc3)CC2)c1C	inconclusive: -24.8%	–
O=C(NCC1CCCO1)C1CCN(C2CCN(C(=O)Cc3ccsc3)CC2)CC1 (stereo unspecified)	inactive: -3.83%	–
Nc1nonc1C(=O)N/N=C/c1ccc(-c2cccc(C(=O)O)c2)o1	–	inconclusive: 15.8 µM [falling, partial curve]

More compounds follow.

SMILES	activity change, negative = inhibition	Potency
O=C(COC(=O)c1ccccc1[N+](=O)[O-])c1ccc(C2CCCCC2)cc1	inconclusive: 8.41%	–
CCOC(=O)C(C)NC(=O)CCc1nnc2ccc(N3CCCCC3)nn12 (stereo unspecified)	inconclusive: -0.83%	–
CN1CCN(C2=Nc3cc(F)ccc3Cc3ccccc32)CC1	inactive: 1.93%	–
NC(CO)c1cn([C@@H](CCC(=O)O)C(=O)N2CCNCC2)nn1 (stereo partly specified)	–	inconclusive: 35.5 µM [falling, single point]
O=C(COC(=O)[C@@H]1CC(O)CN1S(=O)(=O)c1ccc([N+](=O)[O-])cc1)NC12CC3CC(CC(C3)C1)C2 (stereo partly specified)	inconclusive: 9.82%	–
Cc1ccc(/C=N/NS(=O)(=O)c2ccc([N+](=O)[O-])cc2)o1	inconclusive: 5.91%	–
Cc1ccc2cn[nH]c2c1NC(=S)NC(=O)c1ccccc1	inactive: 20.5%	–
O=C(NCCCNC(=O)c1ccc(Cl)cc1Cl)c1ccco1	inactive: -15.8%	–
O=c1c(Cc2ccc(Cl)cc2Cl)c(O)ccn1Cc1ccc(Cl)cc1	–	inconclusive: 29.1 µM [falling, single point]
O=C(CNC(=O)c1ccccc1F)Nc1ccc2c(c1)OCO2	inactive: -6.16%	–
CCc1ccn2cc(-c3cc(-c4ccccc4)no3)nc2c1	inconclusive: 223%	–
CCCS(=O)(=O)N1CCC(Cc2ccc(OC)cc2)(C(=O)OCC)CC1	inconclusive: 5.08%	–
CC(C)CSc1nnc2[nH]c(=O)cc(N)n12	inconclusive: 0.595%	–
O=C(CCCN1C(=O)/C(=C/c2ccc3c(c2)OCO3)SC1=S)Nc1cccc(C(=O)O)c1	inconclusive: 14.9%	–
CCOc1ccc(NC(c2ccccc2)P(=O)(OC)OC)cc1 (stereo unspecified)	inactive: 4.17%	–
Cc1cc(Nc2ccccc2)n2nc(C)c(-c3ccccc3)c2n1	inconclusive: -3.18%	–
C=CCn1c(SCc2nc3ccccc3nc2C)nnc1-c1ccoc1C	–	inconclusive: 35.5 µM [falling, single point]
COc1ccc(OC)c(-c2nnc(SCC(=O)N3CCCC3)o2)c1	inactive: -3.07%	–
O=C(O)c1ccc(Nc2cccc(F)c2)c([N+](=O)[O-])c1	inconclusive: -1.23%	–
CC(C)C(CCNC1CCN(C)CC1)c1ccc(Cl)cc1 (stereo unspecified)	–	inconclusive: 12.6 µM [falling, single point]

From PubChem BioAssay AID493014 (National Center for Advancing Translational Sciences (NCATS), 2011)
